Experimental data as given in the supplement of paper PMC10849652.
This is one part of the list.

Protein sequences, listed by entry. Tags and fused reporters are not part of them. Lines headed by an entry give the natural chain unless they say otherwise; changes in a name come on top.
UniProt Q9Y3A6: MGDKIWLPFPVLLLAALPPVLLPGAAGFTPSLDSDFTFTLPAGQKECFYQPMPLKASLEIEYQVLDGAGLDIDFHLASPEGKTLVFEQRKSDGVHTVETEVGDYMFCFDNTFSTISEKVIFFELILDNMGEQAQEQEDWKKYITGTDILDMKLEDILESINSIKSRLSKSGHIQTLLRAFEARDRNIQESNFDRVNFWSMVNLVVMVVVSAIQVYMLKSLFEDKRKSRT
UniProt Q9Y3Q3: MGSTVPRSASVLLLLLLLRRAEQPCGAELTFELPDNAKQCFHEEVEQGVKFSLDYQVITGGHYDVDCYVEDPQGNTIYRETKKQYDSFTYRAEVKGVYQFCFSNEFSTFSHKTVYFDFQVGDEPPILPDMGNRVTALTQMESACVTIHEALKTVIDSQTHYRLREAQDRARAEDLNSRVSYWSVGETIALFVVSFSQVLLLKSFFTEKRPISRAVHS
UniProt Q0VDI3: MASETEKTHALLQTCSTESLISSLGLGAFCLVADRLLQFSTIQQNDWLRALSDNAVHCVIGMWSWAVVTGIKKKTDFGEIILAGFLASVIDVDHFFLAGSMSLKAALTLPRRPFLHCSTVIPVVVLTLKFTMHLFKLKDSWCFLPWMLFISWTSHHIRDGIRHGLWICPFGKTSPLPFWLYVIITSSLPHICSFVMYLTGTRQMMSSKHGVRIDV
UniProt Q9Y2S6, whole entry, looked up: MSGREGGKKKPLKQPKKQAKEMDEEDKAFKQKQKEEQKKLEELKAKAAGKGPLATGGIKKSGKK
UniProt Q96IK0: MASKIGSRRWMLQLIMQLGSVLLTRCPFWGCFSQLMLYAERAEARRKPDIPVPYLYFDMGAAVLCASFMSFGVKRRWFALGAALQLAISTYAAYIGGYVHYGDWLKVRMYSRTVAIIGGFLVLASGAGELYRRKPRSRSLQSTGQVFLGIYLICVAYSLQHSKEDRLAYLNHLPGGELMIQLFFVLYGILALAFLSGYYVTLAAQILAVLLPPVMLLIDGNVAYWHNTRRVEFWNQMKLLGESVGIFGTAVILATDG
UniProt Q9Y4G6: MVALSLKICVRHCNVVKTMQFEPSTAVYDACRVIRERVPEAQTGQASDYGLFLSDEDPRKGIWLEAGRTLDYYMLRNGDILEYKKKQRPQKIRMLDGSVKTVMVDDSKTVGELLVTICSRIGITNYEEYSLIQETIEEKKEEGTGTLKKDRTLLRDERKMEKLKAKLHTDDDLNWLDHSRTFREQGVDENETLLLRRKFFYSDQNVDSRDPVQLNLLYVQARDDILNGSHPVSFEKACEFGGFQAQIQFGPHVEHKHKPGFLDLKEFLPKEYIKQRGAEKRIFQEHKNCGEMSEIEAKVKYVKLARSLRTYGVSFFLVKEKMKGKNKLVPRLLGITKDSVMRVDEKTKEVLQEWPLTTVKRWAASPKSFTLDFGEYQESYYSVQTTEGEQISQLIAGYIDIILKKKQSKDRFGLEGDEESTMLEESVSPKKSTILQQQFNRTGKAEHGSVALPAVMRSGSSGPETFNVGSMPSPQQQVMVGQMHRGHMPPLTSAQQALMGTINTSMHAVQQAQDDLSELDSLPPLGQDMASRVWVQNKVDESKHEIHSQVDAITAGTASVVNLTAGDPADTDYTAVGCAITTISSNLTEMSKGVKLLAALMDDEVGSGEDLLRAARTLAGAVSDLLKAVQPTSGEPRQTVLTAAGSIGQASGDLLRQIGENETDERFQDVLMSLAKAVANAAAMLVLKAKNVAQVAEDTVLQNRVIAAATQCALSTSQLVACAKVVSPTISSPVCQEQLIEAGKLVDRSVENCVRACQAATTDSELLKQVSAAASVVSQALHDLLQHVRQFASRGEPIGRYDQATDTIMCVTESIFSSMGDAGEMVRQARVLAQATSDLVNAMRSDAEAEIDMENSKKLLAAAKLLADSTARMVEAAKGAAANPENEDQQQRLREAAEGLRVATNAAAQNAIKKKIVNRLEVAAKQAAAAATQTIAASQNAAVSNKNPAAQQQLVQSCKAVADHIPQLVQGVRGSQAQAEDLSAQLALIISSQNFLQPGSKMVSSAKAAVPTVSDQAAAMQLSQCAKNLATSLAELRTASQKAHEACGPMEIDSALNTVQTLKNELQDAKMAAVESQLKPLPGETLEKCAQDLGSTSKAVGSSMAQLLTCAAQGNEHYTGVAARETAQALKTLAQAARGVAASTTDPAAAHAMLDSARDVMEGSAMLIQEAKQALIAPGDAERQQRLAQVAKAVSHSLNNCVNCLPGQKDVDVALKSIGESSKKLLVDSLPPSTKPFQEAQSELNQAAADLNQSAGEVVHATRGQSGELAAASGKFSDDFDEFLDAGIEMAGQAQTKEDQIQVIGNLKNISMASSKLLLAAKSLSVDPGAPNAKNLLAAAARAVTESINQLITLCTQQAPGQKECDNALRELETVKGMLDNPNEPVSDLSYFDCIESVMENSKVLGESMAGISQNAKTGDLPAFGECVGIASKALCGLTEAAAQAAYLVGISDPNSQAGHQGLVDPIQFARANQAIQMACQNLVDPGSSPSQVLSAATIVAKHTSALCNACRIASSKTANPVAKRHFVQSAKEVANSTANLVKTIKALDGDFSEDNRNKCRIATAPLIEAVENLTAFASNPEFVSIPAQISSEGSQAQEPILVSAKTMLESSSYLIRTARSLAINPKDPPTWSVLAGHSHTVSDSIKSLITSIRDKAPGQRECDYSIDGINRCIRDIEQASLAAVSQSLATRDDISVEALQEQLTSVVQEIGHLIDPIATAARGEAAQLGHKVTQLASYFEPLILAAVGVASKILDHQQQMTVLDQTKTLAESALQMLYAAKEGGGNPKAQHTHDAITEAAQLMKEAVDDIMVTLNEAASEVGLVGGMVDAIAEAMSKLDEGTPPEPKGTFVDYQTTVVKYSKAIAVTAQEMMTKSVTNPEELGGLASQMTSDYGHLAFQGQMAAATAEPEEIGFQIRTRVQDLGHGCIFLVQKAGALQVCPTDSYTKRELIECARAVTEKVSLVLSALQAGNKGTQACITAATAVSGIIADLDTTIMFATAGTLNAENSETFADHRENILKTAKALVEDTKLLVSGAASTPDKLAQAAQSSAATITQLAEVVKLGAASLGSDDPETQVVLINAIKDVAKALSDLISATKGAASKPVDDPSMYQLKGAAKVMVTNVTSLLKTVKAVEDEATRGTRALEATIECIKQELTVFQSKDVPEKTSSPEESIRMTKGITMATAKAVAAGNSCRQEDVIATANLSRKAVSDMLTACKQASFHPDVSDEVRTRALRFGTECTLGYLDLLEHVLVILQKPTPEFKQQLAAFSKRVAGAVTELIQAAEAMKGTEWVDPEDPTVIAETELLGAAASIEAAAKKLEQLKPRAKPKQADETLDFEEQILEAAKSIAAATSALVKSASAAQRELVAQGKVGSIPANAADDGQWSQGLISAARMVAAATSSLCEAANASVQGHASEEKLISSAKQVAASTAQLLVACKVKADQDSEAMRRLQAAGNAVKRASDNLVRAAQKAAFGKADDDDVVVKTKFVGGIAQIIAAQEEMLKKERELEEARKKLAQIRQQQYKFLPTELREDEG
UniProt O95807: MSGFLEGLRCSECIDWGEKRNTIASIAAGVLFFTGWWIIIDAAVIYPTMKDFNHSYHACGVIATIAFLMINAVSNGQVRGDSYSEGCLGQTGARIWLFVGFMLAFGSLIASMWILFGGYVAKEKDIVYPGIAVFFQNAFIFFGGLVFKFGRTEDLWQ
UniProt Q8N511: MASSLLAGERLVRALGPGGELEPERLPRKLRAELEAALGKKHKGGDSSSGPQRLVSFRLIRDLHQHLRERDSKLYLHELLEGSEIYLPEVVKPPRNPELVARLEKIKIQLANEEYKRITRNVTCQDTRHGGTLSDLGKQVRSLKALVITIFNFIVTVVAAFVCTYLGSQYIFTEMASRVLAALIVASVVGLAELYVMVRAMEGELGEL
UniProt Q9HD45: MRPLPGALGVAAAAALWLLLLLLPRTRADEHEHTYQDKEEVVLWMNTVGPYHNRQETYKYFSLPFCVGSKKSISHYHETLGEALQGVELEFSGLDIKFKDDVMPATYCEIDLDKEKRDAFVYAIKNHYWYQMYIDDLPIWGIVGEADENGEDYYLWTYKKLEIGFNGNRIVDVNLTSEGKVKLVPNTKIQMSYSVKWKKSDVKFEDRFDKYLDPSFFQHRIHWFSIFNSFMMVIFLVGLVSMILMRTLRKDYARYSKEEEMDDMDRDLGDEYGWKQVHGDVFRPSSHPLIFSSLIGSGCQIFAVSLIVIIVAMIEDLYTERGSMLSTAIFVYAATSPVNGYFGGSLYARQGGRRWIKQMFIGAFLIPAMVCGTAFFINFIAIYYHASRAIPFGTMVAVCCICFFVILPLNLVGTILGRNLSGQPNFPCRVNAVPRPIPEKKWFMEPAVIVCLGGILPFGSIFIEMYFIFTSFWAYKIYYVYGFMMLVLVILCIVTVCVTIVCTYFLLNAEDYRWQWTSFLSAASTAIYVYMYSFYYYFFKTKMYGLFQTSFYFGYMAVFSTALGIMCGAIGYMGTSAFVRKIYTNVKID
UniProt P42167: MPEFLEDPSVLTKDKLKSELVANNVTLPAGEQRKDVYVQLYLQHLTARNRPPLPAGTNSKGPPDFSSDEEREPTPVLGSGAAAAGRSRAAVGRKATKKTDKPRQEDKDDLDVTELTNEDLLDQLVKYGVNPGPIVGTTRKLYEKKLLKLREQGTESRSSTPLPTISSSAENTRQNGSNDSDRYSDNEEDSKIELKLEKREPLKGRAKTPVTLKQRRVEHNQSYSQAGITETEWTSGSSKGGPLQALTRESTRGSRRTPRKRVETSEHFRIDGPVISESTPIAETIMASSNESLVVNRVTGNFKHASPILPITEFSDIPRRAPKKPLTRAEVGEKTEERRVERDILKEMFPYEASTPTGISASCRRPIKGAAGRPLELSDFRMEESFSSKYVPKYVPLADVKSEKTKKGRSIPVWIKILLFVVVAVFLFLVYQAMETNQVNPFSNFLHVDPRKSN
UniProt Q8IUX1: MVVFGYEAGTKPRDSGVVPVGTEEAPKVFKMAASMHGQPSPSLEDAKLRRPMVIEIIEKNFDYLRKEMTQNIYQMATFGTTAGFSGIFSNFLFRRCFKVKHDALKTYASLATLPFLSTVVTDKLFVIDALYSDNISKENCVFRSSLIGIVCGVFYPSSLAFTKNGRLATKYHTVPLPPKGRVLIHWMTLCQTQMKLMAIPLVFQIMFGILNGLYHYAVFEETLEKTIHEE
UniProt Q7Z7H5: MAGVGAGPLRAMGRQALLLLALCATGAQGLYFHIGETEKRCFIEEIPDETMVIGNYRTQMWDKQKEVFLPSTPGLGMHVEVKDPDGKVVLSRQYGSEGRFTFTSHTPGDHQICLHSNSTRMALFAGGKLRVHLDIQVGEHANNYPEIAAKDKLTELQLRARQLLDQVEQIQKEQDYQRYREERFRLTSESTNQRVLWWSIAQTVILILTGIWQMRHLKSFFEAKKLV
UniProt O14763, whole entry, looked up: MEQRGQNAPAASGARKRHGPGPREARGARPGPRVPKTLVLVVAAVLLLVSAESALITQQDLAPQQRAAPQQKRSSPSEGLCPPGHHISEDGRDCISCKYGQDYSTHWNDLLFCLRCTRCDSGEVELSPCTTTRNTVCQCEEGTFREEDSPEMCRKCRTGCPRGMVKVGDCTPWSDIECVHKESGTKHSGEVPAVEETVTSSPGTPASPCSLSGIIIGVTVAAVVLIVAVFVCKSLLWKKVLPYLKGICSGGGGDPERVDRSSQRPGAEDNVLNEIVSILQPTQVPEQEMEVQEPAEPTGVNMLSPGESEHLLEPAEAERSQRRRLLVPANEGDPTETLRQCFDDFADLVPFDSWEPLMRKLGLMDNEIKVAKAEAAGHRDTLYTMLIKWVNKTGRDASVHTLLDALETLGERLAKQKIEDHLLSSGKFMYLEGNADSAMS
UniProt Q9NVA4: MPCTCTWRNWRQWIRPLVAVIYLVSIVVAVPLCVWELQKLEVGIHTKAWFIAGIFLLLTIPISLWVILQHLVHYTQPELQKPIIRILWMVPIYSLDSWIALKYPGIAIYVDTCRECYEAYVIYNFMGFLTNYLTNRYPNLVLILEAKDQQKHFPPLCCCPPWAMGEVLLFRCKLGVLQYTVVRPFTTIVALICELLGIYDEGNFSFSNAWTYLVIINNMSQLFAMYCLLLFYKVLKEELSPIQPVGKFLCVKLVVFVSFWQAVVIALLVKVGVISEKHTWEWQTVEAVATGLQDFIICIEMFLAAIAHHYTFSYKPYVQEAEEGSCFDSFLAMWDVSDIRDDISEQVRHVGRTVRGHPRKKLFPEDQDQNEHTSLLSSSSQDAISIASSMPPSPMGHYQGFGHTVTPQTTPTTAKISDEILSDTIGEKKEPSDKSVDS
UniProt Q9NVV0: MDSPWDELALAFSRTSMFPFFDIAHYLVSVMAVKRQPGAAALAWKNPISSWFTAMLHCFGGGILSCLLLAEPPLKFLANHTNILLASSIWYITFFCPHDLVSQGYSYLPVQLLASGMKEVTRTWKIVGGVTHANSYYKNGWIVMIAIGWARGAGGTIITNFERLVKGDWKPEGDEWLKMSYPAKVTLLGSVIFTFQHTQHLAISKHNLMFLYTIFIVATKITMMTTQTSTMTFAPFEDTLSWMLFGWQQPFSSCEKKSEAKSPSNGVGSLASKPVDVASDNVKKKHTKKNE

Key:
Assay in all cases: log2 fold change, soluble protein after heating vs DMSO (PISA); higher = thermal stabilisation; K562 cells, 10 uM, 30 min; active = over 0.2 and 3.5 SD of the protein, either way, in both replicates (recomputed)
[1] = compound: C1=CC=C(C=C1)[C@H](COC2=CC3=C(C=C2)NC(=O)N3)NC(=O)C4=CC=CN(C4=O)CC5=CC(=C(C=C5)F)F
Outline: (§1)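 Soluble protein was quantified by TMTpro 16plex LC-MS/MS after channel sums were equalised. It was obtained as the supernatant after 21,000xg for 90 min from pooled aliquots of K562 cells (2×10^6 cells/mL, 10 μM compound, 30 min) heated for 3 min across 48°C-58°C and extracted in PBS with 0.5% NP-40 at 4°C. Thermal stability values are relative to control samples and come from duplicates. They are given as log2 fold changes.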

[2] = compound: CC1=C(SC2=C1C(=N[C@H](C3=NN=C(N32)C)CC(=O)N)C4=CC=C(C=C4)Cl)C
Outline: as §1

[3] = compound: CC1=C2C(=CC=C1)N=C(N(C2=O)C3=CC=CC=C3C)CN4C=NC5=C(N=CN=C54)N
Outline: as §1

[4] = compound: Cc1sc2c(c1C)C(c1ccc(Cl)cc1)=N[C@@H](CC(=O)OC(C)(C)C)c1nnc(C)n1-2
Outline: as §1

[5] = compound: c1ccc([C@@H]2C[C@H]2NC2CCNCC2)cc1
Outline: as §1

Measured: log2 fold change

TMED5 (UniProt Q9Y3A6)
inactive: [1] -0.015 | [2] 0.036 | [3] 0.031 | [4] -0.025 | [5] -0.029

TMED3 (UniProt Q9Y3Q3)
inactive: [1] 0.029 | [2] 0.04 | [3] 0.1 | [4] -0.043 | [5] 0.035

TMEM230 isoform 2 (UniProt Q96A57)
inactive: [1] 0.008 | [2] -0.023 | [3] -0.129 | [4] 0.019 | [5] 0.012

TMEM87A (UniProt Q8NBN3)
inactive: [1] 0.034 | [2] 0.034 | [3] 0.042 | [4] 0.012 | [5] 0.049

TMEM267 (UniProt Q0VDI3)
inactive: [1] 0.064 | [2] 0.173 | [3] 0.027 | [4] 0.217 | [5] -0.082

TMA7 (UniProt Q9Y2S6)
inactive: [1] -0.053 | [2] -0.008 | [3] 0.028 | [4] -0.017 | [5] 0.006

TMEM101 (UniProt Q96IK0)
inactive: [1] -0.09 | [2] 0.077 | [3] 0.087 | [4] -0.029 | [5] 0.034

TLN2 (UniProt Q9Y4G6)
inactive: [1] -0.005 | [2] 0.049 | [3] -0.026 | [4] 0.023 | [5] -0.017

TMEM181 (UniProt Q9P2C4)
inactive: [1] -0.05 | [2] -0.076 | [3] 0.085 | [4] 0.075 | [5] 0.015

TMED9 (UniProt Q9BVK6)
inactive: [1] 0.012 | [2] 0.012 | [3] 0.025 | [4] -0.004 | [5] -0.02

TMEM50A (UniProt O95807)
inactive: [1] 0.113 | [2] -0.409 | [3] -0.076 | [4] 0.073 | [5] 0.291

TMX2 (UniProt Q9Y320)
inactive: [1] -0.039 | [2] 0.057 | [3] 0.035 | [4] -0.147 | [5] -0.033

TMEM199 (UniProt Q8N511)
inactive: [1] 0.062 | [2] 0.013 | [3] 0.144 | [4] -0.074 | [5] 0.006

TMEM135 (UniProt Q86UB9)
inactive: [1] 0.022 | [2] 0.02 | [3] 0.182 | [4] -0.014 | [5] -0.009

TMEM134 (UniProt Q9H6X4)
inactive: [1] 0.037

TMED10 (UniProt P49755)
inactive: [1] 0.035 | [2] 0.058 | [3] 0.015 | [4] -0.029 | [5] -0.021

TMEM165 (UniProt Q9HC07)
inactive: [1] -0.03 | [2] -0.016 | [3] 0.165 | [4] -0.005 | [5] 0.031

TM9SF3 (UniProt Q9HD45)
inactive: [1] 0.002 | [2] 0.05 | [3] 0.02 | [4] 0.013 | [5] -0.041

TMTC4 isoform 3 (UniProt Q5T4D3)
inactive: [1] 0.082

TMBIM1 (UniProt Q969X1)
inactive: [1] 0.024 | [2] 0.206 | [3] 0.242 | [4] -0.005 | [5] 0.193

TMX3 (UniProt Q96JJ7)
inactive: [1] 0.015 | [2] 0.031 | [3] 0.025 | [4] 0.017 | [5] 0

TMPO (UniProt P42167)
inactive: [1] 0.003 | [2] 0.032 | [3] 0.003 | [4] -0.049 | [5] -0.015

TM9SF4 (UniProt Q92544)
inactive: [1] -0.038 | [2] 0.008 | [3] -0.001 | [4] -0.047 | [5] -0.032

TMEM63A (UniProt O94886)
inactive: [1] -0.052 | [2] 0.049 | [3] 0.036 | [4] -0.03 | [5] -0.073

TLR4 (UniProt O00206)
inactive: [1] 0.096 | [2] 0.003 | [3] 0.212 | [4] -0.055 | [5] 0.057

TMEM70 (UniProt Q9BUB7)
inactive: [1] -0.002 | [2] 0.065 | [3] 0.057 | [4] -0.05 | [5] -0.002

TMA16 (UniProt Q96EY4)
inactive: [1] 0.063 | [2] -0.302 | [3] -0.22 | [4] 0.165 | [5] 0.008

TMEM189 (UniProt A5PLL7)
inactive: [1] 0.067 | [2] 0.06 | [3] 0.013 | [4] -0.072 | [5] 0.054

TMEM14C (UniProt Q9P0S9)
inactive: [1] 0.098 | [2] -0.028 | [3] 0.097 | [4] -0.064 | [5] 0.096

TMEM98 (UniProt Q9Y2Y6)
inactive: [1] -0.022

TMEM62 (UniProt Q0P6H9)
inactive: [1] 0.116 | [2] 0.092 | [3] 0.057 | [4] 0.016 | [5] 0.092

TMEM209 (UniProt Q96SK2)
inactive: [1] -0.015 | [2] 0.037 | [3] 0.044 | [4] -0.053 | [5] -0.027

TMUB1 (UniProt Q9BVT8)
inactive: [1] -0.027 | [2] -0.193 | [3] -0.22 | [4] 0.029 | [5] -0.037

TMCC3 (UniProt Q9ULS5)
inactive: [1] -0.143

TMEM63B (UniProt Q5T3F8)
inactive: [1] 0.059 | [2] -0.005 | [3] -0.099 | [4] -0.036 | [5] -0.04

TMOD2 (UniProt Q9NZR1)
inactive: [1] -0.101 | [2] 0.12 | [3] -0.058 | [4] -0.087 | [5] -0.125

TMEM126B (UniProt Q8IUX1)
inactive: [1] -0.016 | [2] 0.015 | [3] 0.052 | [4] 0.006 | [5] -0.009

TMEM164 (UniProt Q5U3C3)
inactive: [1] -0.195 | [2] -0.047 | [3] 0.257 | [4] -0.22 | [5] 0.068

2 neighbouring entries already listed, for reference:
TMEM14C (UniProt Q9P0S9)
inactive: [1] 0.098 | [2] -0.028 | [3] 0.097 | [4] -0.064 | [5] 0.096

TMEM98 (UniProt Q9Y2Y6)
inactive: [1] -0.022

(further entries)

TMED4 (UniProt Q7Z7H5)
inactive: [1] 0 | [2] 0.022 | [3] 0.038 | [4] -0.017 | [5] -0.005

TMEM30A (UniProt Q9NV96)
inactive: [1] -0.003 | [2] 0.041 | [3] -0.021 | [4] 0.014 | [5] 0.041

TMEM141 (UniProt Q96I45)
inactive: [1] 0.002 | [2] 0.01 | [3] 0.037 | [4] -0.094 | [5] 0.079

TMEM9B (UniProt Q9NQ34)
inactive: [1] 0.043 | [2] 0.074 | [3] 0.093 | [4] -0.041 | [5] -0.011

TNFAIP1 (UniProt Q13829)
inactive: [1] -0.058 | [2] -0.027 | [3] -0.141 | [4] -0.055 | [5] 0.043

TMEM222 (UniProt Q9H0R3)
inactive: [1] -0.038 | [2] 0.116 | [3] -0.085 | [4] -0.026 | [5] 0.093

TMX1 (UniProt Q9H3N1)
inactive: [1] 0.039 | [2] 0.003 | [3] 0.034 | [4] -0.024 | [5] -0.028

TMEM263 (UniProt Q8WUH6)
inactive: [1] -0.152 | [2] 0.047 | [3] 0.156 | [4] -0.072 | [5] -0.031

TMPO (UniProt P42166)
inactive: [1] -0.025 | [2] -0.024 | [3] 0.076 | [4] 0.038 | [5] 0.008

TMEM248 (UniProt Q9NWD8)
inactive: [1] 0.027 | [2] -0.054 | [3] -0.032 | [4] -0.008 | [5] 0.002

TMEM161B (UniProt Q8NDZ6)
inactive: [1] -0.076 | [2] 0.13 | [3] 0.018 | [4] 0.092 | [5] 0.08

TNFRSF10B (UniProt O14763)
inactive: [1] 0.132 | [2] 0.065 | [3] 0.059 | [4] -0.071 | [5] -0.064

TMEM184C (UniProt Q9NVA4)
inactive: [1] 0 | [2] 0.078 | [3] 0.022 | [4] 0.045 | [5] 0.22

TMEM219 (UniProt Q86XT9)
inactive: [1] 0.066 | [2] -0.023 | [3] -0.172 | [4] 0.016 | [5] -0.162

TMEM189-UBE2V1 (UniProt I3L0A0)
inactive: [1] -0.047 | [2] 0.02 | [3] 0.102 | [4] -0.02 | [5] 0.048

TMEM38B (UniProt Q9NVV0)
inactive: [1] 0.017 | [2] 0.052 | [3] -0.001 | [4] 0.015 | [5] 0.015

TMEM43 (UniProt Q9BTV4)
inactive: [1] 0.075 | [2] -0.039 | [3] -0.042 | [4] 0 | [5] -0.008
